No constants are given. Whether binding was seen depends on the method and setting. For part of these data: In cells and extracts the contact can be indirect. Some binding calls cover weakened binding; strength is not graded here. For part of these data: Tags and fused reporters may be left off the sequences shown.
Assays:
[1] = target: CHC22 clathrin heavy chain (human (endogenous in HeLa and AB1190 myotubes)) (UniProt P53675); assay: co-IP
full-length GST-p115 = target: T1, full-length GST-p115 (UniProt O60763 1-962); assay: pull-down
T1 sequence: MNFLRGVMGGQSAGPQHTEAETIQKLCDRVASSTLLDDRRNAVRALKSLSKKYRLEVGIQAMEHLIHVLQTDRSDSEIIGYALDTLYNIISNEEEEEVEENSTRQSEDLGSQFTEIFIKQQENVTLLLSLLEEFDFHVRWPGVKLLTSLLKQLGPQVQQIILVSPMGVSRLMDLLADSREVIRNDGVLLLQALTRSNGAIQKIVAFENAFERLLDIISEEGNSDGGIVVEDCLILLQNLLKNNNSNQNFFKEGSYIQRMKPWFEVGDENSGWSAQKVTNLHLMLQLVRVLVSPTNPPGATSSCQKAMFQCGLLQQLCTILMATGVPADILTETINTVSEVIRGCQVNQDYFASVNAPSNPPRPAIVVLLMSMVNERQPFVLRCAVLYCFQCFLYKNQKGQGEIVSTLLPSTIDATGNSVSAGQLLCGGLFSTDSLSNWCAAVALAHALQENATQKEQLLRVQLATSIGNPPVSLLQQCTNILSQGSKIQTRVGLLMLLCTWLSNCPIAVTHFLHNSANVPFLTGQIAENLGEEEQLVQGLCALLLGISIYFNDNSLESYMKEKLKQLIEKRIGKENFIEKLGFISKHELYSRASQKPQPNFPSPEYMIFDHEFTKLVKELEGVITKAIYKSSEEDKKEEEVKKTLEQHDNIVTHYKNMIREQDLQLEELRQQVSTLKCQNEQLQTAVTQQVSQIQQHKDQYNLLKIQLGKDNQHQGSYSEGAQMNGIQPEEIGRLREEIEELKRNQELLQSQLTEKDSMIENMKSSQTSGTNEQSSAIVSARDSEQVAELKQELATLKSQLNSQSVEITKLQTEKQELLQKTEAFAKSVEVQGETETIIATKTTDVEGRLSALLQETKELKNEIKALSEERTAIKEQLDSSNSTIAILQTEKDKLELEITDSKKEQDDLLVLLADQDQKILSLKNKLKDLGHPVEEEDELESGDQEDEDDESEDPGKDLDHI

Chains of the proteins cited; added tags and fusions are not shown. Residues count along the entry.
UniProt Q13596: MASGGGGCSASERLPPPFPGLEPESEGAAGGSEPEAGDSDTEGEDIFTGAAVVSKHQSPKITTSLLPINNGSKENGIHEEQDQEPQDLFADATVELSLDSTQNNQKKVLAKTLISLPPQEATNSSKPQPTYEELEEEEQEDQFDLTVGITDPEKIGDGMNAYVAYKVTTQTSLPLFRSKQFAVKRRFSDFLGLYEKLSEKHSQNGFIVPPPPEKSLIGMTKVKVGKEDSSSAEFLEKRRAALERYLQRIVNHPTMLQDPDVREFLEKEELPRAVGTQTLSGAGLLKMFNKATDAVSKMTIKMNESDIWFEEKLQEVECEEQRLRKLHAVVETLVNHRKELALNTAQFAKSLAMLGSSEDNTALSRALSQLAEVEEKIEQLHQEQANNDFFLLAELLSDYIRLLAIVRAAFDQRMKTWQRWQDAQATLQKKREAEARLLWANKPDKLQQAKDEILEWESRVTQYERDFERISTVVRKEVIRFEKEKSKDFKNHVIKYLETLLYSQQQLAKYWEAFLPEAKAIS
UniProt Q00610, residues 1-364: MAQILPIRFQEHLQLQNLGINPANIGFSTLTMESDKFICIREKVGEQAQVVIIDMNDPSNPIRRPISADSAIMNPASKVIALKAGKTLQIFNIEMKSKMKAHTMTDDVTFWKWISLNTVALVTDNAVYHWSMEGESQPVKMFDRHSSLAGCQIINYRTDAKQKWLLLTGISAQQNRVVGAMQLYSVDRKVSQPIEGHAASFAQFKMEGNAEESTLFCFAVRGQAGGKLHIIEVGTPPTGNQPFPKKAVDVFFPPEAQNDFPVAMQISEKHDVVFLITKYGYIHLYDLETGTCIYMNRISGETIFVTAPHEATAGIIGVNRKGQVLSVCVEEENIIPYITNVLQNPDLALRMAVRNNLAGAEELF

[2] = target: CHC22 clathrin heavy chain (human (endogenous in HeLa and AB1190 myotubes)) (UniProt P53675); assay: co-IP; remark: listed apart in the source
sfGFP-ΔTD-CHC22 (human) = target: T2, sfGFP-ΔTD-CHC22 (human) (UniProt P53675); assay: co-IP
T2 sequence: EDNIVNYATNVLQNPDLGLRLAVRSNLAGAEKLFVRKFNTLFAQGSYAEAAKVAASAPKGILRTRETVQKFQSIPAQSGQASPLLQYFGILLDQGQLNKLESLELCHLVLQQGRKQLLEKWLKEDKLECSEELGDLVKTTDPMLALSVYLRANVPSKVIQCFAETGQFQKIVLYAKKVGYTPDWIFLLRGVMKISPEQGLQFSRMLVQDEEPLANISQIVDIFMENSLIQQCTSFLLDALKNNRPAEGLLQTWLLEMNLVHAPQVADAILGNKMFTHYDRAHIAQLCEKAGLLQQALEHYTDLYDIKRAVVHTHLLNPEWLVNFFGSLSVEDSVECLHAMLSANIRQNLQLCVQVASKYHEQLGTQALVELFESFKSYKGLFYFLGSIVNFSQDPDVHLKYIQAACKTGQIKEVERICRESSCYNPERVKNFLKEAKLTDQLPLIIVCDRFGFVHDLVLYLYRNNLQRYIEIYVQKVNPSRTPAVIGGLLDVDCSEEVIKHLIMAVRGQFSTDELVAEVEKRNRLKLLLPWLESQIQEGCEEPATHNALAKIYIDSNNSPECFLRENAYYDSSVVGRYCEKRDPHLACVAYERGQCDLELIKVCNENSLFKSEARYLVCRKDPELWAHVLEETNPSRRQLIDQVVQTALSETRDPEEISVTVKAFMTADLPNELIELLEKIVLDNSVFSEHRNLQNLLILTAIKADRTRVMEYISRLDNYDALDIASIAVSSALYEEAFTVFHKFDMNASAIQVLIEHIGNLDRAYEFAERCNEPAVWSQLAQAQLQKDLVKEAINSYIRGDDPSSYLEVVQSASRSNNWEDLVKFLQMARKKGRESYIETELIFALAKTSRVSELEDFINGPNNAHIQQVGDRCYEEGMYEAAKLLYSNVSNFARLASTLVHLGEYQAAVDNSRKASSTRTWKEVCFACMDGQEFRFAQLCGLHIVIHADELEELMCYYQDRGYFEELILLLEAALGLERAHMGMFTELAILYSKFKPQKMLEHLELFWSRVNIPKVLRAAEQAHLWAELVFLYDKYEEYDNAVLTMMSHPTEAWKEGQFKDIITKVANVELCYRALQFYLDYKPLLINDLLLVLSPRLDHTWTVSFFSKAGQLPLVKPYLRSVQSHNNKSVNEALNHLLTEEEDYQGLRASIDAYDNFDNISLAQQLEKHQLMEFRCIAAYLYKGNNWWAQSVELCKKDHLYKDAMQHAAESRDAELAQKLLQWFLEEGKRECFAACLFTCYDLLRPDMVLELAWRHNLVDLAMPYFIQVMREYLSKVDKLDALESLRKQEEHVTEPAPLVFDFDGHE

[3] = target: sfGFP-CHC22 wild-type (human) (UniProt P53675); assay: co-IP
[4] = target: CHC22 clathrin heavy chain (human (endogenous in HeLa and AB1190 myotubes)) (UniProt P53675); assay: proximity ligation

SNX1 (endogenous) (from UniProt Q13596 1-522)
binding [1]: no binding

His-SUMO CHC17 terminal domain (from UniProt Q00610 1-364) (domain or fragment)
binding (full-length GST-p115): no binding (tested: 12.5 µg in 250 µl)

B1: p115 (endogenous) (protein, UniProt O60763 1-962)
chain: T1 sequence
binding [2]: binds | binding (sfGFP-ΔTD-CHC22 (human)): binds | binding [3]: binds | binding [4]: binds
